No constants are given. Whether binding was seen depends on the method and setting. A result given as binding can be weak or reduced; the word gives no strength. Tags and fused reporters may be left off the sequences shown.

Amino acid sequences for entries named in this document (tags omitted). A change or cut given only in a name is not applied to a line headed by its entry.
UniProt P55899: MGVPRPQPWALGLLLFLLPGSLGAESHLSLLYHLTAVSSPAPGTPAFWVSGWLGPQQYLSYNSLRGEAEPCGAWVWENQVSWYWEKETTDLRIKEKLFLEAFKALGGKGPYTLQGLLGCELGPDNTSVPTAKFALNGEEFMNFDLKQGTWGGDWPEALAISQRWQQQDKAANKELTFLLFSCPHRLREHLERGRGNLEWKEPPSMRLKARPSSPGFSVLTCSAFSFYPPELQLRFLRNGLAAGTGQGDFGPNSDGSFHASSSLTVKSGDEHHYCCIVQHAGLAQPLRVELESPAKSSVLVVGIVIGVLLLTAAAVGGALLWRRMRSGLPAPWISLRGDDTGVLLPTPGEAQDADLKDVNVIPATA

The test concerns the target human FcRn protein (MednaBio, E1032) (human) (UniProt P55899). In words: BLI.

B1: anti-CD137 IgG4 with Fc variant G4m2 (antibody)
heavy: EVQLVQSGAEVKKPGESLRISCKGSGYSFSTYWISWVRQMPGKGLEWMGKIYPGDSYTNYSPSFQGQVTISADKSISTAYLQWSSLKASDTAMYYCARGYGIFDYWGQGTLVTVSSASTKGPSVFPLAPCSRSTSESTAALGCLVKDYFPEPVTVSWNSGALTSGVHTFPAVLQSSGLYSLSSVVTVPSSSLGTKTYTCNVDHKPSNTKVDKRVESKYGPPCPPCPAPEFLGPSVFLFPPKPKDTLMISRTPEVTCVVVDVSQEDPEVQFNWYVDGVEVHNAKTKPREEQFNSTYRVVSVLTVLHQDWLNGKEYKCKVSNKGLPSSIEKTISKAKGQPREPQVYTLPPSQEEMTKNQVSLTCLVKGFYPSDIAVEWESNGQPENNYKTTPPVLDSDGSFFLYSRLTVDKSRWQEGNVFSCSVMHEALHNHYTQKSLSLSLGK
light: SYELTQPPSVSVSPGQTASITCSGDNIGDQYAHWYQQKPGQSPVLVIYQDKNRPSGIPERFSGSNSGNTATLTISGTQAMDEADYYCATYTGFGSLAVFGGGTKLTVLGQPKAAPSVTLFPPSSEELQANKATLVCLISDFYPGAVTVAWKADSSPVKAGVETTTPSKQSNNKYAASSYLSLTPEQWKSHRSYSCQVTHEGSTVEKTVAPTECS
In the case of B1, the binding result was “binds”.

Values taken from patent US20200392227A1.
